These are yes or no findings as the source states them, for the method shown. Some binding calls cover weakened binding; strength is not graded here. One block for each binder: values may come before it.
Tests used:
Cy5-labeled streptavidin [1] = target: Cy5-labeled streptavidin (UniProt P22629); experiment: peptide array, extension library XXPAWAHXX, no linker
streptavidin [2] = target: streptavidin (UniProt P22629); experiment: SPR
Cy5-labeled streptavidin [3] = target: Cy5-labeled streptavidin (UniProt P22629); experiment: peptide array, 5-mer library, 1Z linker, Cy5-streptavidin
Cy5-labeled streptavidin [4] = target: Cy5-labeled streptavidin (UniProt P22629); experiment: peptide array, extension library XXPAWAHXX, 3Z linker
streptavidin [5] = target: streptavidin (UniProt P22629); experiment: SPR, Biacore X100, streptavidin on CM5 chip, peptide in solution
Cy5-labeled streptavidin [6] = target: Cy5-labeled streptavidin (UniProt P22629); experiment: peptide array, 5-mer library, no linker, Cy5-streptavidin
Cy5-labeled streptavidin [7] = target: Cy5-labeled streptavidin (UniProt P22629); experiment: peptide array, extension library XXFDEWLXX, 3Z linker
Cy5-labeled streptavidin [8] = target: Cy5-labeled streptavidin (UniProt P22629); experiment: peptide array, 5-mer library, 3Z linker, Cy5-streptavidin
Cy5-labeled streptavidin [9] = target: Cy5-labeled streptavidin (UniProt P22629); experiment: peptide array, extension library XXFDEWLXX, no linker
Taq polymerase = Taq polymerase (UniProt P19821); experiment: peptide array, extension library, 3Z linker
Cy5-labeled streptavidin [10] = target: Cy5-labeled streptavidin (UniProt P22629); experiment: peptide array, 5-mer library, 1J linker, Cy5-streptavidin

The chains behind the UniProt entries cited, without tags or fusion partners.
UniProt P19821: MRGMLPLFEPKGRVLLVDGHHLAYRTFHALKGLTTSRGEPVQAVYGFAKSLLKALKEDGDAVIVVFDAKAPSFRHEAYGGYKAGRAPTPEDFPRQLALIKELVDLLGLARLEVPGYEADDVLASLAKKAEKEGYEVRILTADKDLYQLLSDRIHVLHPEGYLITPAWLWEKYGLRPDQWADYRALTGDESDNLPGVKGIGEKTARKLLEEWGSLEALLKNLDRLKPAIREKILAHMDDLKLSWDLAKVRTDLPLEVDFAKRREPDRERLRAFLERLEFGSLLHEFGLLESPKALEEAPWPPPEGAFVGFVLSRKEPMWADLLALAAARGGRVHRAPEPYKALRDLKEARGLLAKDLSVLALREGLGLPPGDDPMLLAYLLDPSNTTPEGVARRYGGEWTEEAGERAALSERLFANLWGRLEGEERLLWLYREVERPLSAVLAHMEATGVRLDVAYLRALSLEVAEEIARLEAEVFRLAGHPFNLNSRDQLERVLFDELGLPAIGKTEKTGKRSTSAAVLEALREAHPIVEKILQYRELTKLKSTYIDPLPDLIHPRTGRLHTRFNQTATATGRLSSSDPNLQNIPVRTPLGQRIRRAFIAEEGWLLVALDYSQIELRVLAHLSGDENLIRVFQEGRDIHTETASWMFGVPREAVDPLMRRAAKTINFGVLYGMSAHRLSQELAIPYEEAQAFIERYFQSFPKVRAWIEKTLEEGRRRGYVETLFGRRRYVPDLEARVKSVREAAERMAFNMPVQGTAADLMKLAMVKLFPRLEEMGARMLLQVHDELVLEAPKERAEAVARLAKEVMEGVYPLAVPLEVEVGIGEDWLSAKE

binding (Cy5-labeled streptavidin [4]): binds | binding (Cy5-labeled streptavidin [1]): binds
Binder: PAPAWAHGG

binding (Cy5-labeled streptavidin [7]): binds
Binder: NSFDEWLAN

binding (Cy5-labeled streptavidin [7]): binds
Binder: NSFDEWLQK

binding (Cy5-labeled streptavidin [4]): binds
Binder: PVPAWAHGG

binding (Cy5-labeled streptavidin [7]): binds | binding (Cy5-labeled streptavidin [9]): binds
Binder: NSFDEWLNQ

binding (Taq polymerase): binds
Binder: QQHEFSFAQ

binding (Cy5-labeled streptavidin [1]): binds
Binder: YGPAWAHGG

binding (Cy5-labeled streptavidin [4]): binds
Binder: RAPAWAHGG

binding (Cy5-labeled streptavidin [9]): binds
Binder: DSFDEWLAG

binding (Cy5-labeled streptavidin [9]): binds
Binder: NSFDEWLAG

Further lines, the binder ahead of its results:

Binder: FAPAWAHGG
binding (Cy5-labeled streptavidin [1]): binds

Binder: WTHPQFEQK [NH2-…-COOH]
binding (streptavidin [2]): binds

Binder: LGEYH
binding (Cy5-labeled streptavidin [3]): binds

Binder: GNSFDDWLASKG (C-terminal amide)
binding (streptavidin [2]): binds | binding (streptavidin [5]): binds

Binder: LRFDT
binding (Cy5-labeled streptavidin [6]): binds

Binder: EWVHPQFEQKAK (C-terminal amide)
binding (streptavidin [2]): binds

Binder: FDEWL
binding (Cy5-labeled streptavidin [3]): binds

Binder: NAWAH
binding (Cy5-labeled streptavidin [6]): binds

Binder: AFPDYLAEYHGG (C-terminal amide)
binding (streptavidin [2]): binds

Binder: PAWAH
binding (Cy5-labeled streptavidin [3]): binds

Binder: SWDKW
binding (Cy5-labeled streptavidin [8]): binds

Binder: LAEYH
binding (Cy5-labeled streptavidin [8]): binds

Binder: WRGWL
binding (Cy5-labeled streptavidin [6]): binds

Binder: DPFGW
binding (Cy5-labeled streptavidin [3]): binds | binding (Cy5-labeled streptavidin [8]): binds

Binder: YGPYK
binding (Cy5-labeled streptavidin [10]): binds

Binder: WTHPQFEQPKA (C-terminal amide)
binding (streptavidin [2]): binds

Binder: NYPDW
binding (Cy5-labeled streptavidin [8]): binds

Binder: FYGKY
binding (Cy5-labeled streptavidin [10]): binds

— patent US20160305952A1
